Results are given in words; binding and its absence hold for the method and conditions named. Binding seen in cells or lysates may run through a third protein. These calls come from enrichment with a bait or labelling near it, and not all partners need be listed. Tags and fused reporters may be left off the sequences shown.

Sequences of proteins named here, by UniProt entry; tags and fusion partners are left off.
UniProt F4HW04: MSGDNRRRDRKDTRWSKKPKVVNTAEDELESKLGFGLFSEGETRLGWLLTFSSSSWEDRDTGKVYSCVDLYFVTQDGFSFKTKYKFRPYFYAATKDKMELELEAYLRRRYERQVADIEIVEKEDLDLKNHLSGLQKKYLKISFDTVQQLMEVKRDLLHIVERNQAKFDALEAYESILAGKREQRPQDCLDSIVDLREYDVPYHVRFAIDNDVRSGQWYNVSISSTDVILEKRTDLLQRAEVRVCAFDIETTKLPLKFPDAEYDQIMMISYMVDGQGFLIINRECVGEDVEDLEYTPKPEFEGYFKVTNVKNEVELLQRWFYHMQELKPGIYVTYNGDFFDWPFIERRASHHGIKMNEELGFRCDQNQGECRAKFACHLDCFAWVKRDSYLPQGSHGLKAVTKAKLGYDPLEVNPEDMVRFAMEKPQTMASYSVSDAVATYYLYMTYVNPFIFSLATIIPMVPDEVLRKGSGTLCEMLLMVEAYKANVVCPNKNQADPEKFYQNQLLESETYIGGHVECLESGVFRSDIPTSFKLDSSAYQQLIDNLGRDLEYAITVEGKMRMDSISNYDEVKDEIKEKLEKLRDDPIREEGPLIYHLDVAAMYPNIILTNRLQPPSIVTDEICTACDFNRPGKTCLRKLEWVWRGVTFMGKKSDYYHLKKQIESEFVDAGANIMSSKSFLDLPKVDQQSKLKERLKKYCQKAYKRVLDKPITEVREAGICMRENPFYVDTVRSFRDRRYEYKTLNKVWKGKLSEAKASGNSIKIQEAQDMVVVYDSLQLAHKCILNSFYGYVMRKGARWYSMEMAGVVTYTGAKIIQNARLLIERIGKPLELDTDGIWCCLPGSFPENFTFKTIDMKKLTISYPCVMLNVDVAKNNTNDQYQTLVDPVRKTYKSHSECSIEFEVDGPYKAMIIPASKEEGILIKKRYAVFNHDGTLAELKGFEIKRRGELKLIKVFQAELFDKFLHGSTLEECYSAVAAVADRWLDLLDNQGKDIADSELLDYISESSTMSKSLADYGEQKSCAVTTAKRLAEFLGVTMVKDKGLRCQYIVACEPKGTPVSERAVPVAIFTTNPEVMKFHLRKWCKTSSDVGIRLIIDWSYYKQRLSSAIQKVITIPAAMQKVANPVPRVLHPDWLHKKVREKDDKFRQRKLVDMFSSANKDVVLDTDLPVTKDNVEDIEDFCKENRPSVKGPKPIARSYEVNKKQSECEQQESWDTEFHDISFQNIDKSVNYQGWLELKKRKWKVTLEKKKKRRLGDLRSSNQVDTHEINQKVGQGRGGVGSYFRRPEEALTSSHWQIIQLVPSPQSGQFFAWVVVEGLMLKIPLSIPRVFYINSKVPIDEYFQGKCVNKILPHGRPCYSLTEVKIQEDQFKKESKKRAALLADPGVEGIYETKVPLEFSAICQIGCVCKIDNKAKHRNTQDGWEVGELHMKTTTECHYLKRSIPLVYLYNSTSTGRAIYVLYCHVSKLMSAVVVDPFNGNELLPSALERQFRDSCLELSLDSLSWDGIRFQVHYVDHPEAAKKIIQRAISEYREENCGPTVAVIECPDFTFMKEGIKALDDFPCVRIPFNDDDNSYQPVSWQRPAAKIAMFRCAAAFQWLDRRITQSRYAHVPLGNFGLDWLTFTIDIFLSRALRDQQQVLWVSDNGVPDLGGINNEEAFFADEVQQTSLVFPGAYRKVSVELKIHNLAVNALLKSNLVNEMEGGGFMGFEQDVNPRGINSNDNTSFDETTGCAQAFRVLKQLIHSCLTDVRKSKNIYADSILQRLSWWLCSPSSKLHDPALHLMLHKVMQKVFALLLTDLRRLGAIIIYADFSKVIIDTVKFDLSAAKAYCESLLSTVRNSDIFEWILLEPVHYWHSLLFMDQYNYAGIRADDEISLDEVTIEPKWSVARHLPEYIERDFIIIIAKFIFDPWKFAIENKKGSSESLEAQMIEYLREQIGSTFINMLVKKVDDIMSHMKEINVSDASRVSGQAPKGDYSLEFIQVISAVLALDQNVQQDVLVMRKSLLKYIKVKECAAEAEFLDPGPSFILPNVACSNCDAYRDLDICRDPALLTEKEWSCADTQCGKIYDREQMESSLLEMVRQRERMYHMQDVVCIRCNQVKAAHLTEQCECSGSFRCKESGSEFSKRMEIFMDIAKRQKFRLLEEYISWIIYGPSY

This assay deals with T1, GS-ULT1 (GS-tagged U…1 fusion protein) (Arabidopsis thaliana) (UniProt Q8GZA8).
T1 sequence: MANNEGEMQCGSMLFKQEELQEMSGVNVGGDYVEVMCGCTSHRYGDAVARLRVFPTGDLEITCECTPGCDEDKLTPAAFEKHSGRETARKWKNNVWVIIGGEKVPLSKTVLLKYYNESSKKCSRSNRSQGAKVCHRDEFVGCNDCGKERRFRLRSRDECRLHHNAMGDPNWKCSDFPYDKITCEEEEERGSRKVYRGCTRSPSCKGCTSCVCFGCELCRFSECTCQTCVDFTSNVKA
Nature of the assay: affinity purification with mass spectrometry.

As to “EARLY IN SHORT DAYS 7 (ESD7), endogenous (from UniProt F4HW04 1-2161)”, the binding result was “binds”.
Turning to INCURVATA 2 (ICU2), endogenous, the binding entry is “binds”.

The values are drawn from doi:10.1101/2024.10.21.619451.
